According to US7989417B2 (Bracco Imaging S.p.A., priority 2003, dated 2011):

Assay: general procedure: Fmoc solid-phase peptide synthesis; Rink Amide-Novagel HL resin (0.6 mmol/g); HBTU/DIEA; HOBT/DIC
Conditions: for isolated yield / isolated mass: whole synthesis; for isolated yield: overall; for isolated mass: scale 0.3 mmol; for conjugation yield: conjugation step

Substance	isolated yield [%]	isolated mass [mg]	conjugation yield [%]
N-[(3β,5β, 12α)-3-[[[[[4,7,10-Tris(carboxymethyl)-1,4,7,10-tetraazacyclododec-1-yl]acetyl]amino]acetyl]amino]-12-hydroxy-24-oxocholan-24-yl]-L-glutaminyl-L-tryptophyl-L-alanyl-L-valyl-glycyl-L-histidvl-L-leucvl-L-methioninamide	9	12.8	
Pyr-His-Trp-Ser-Tyr-DLys(DOTA-Gly-Adca3)-Leu-Arg-Pro-Gly-NH2			68
Pyr-His-Trp-Ser-Tyr-DLys(H-Gly-Adca3)-Leu-Arg-Pro-Gly-NH2			41
N-[(3β,5β,7α,12α)-3-[[[[[4,7,10-Tris(carboxymethyl)-1,4,7,10-tetraazacyclododec-1-yl] acetyl]amino]acetyl]amino]-7,12-dihydroxy-24-oxocholan-24-yl]-L-glutaminyl-L-tryptophyl-L-alanyl-L-valyl-glycyl-L-histidyl-L-leucyl-L-methioninamide	4	3.6	
